Assay: Metered dose inhaler drug deposition on can, valve and actuator
Conditions: for Actuator Deposition at the beginning of use / Can Deposition at the beginning of use / Total Drug Deposition at the beginning of use / Valve Deposition at the beginning of use: after actuations 1 & 2; for Can Deposition at the end of use / Total Drug Deposition at the end of use / Valve Deposition at the end of use: after actuations 119 & 120
[1] = Inhaler Type A, listed as sample 18
[2] = Inhaler Type A, listed as sample 20
[3] = Inhaler Type B, listed as sample 21
[4] = Inhaler Type B, listed as sample 22

fluticasone propionate [Sample 18]
Actuator Deposition at the beginning of use [1]: 12 micrograms
Can Deposition at the beginning of use [1]: 0.8 mg
Total Drug Deposition at the beginning of use [1]: 1.3 mg
Valve Deposition at the beginning of use [1]: 0.5 mg

fluticasone propionate [Sample 20]
Actuator Deposition at the beginning of use [2]: 11 micrograms
Can Deposition at the beginning of use [2]: 0.5 mg
Total Drug Deposition at the beginning of use [2]: 0.8 mg
Valve Deposition at the beginning of use [2]: 0.3 mg

fluticasone propionate [Sample 21]
Valve Deposition at the beginning of use (Inhaler Type B): 0.2 mg
Can Deposition at the beginning of use [3]: 0.4 mg
Total Drug Deposition at the beginning of use [3]: 0.6 mg
Can Deposition at the end of use [3]: 0.4 mg
Total Drug Deposition at the end of use [3]: 0.7 mg
Valve Deposition at the end of use [3]: 0.3 mg

fluticasone propionate [Sample 22]
Can Deposition at the beginning of use [4]: 0.3 mg
Total Drug Deposition at the beginning of use [4]: 0.5 mg
Can Deposition at the end of use [4]: 0.3 mg
Total Drug Deposition at the end of use [4]: 0.5 mg
Valve Deposition at the end of use [4]: 0.2 mg
